# Reference: PubChem BioAssay AID1508600 (Functional Genomics Laboratory (NCATS/FGL), 2020)
# About 3,700 (7%) of roughly 53,000 sequences were called active.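 Rule for the calls: active = gene knockdowns whose robust z-score for IL-1 alpha signal is at least 2 or at most -2, so actives lie on both sides; inactive = the rest.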 This is one part of the list.
# Test: Components of the Cytosolic LPS Sensing Pathway: Gene Identification via Genome-wide siRNA Screen;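 note: robust z of the log signal after scaling to non-targeting control siRNA wells of the plate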
# Conditions: RAW264.7 macrophages, IL-1a HTRF, actives lie on both sides, screened at 100 nM (by protocol), cells primed 5 h with Pam3CSK4 first
# Outline: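 IL-1a HTRF of supernatants after 24 hour LipidA transfection of Pam3CSK4-primed (5 hours) RAW264.7 cells, 48h post-siRNA transfection (100 nM). Scores: percent of plate negative-control median, then log-based robust z-score.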
row,Sequence,z-score
1,GGUUUGUUAGACCAUUACGTT against Cep43,inactive: 0.356
2,GCUCUCCAGCUAAAUGACCTT against Lsm3,inactive: 0.257
3,CAUCGUUGGAGCUAUAGAUTT against Olfr1098,inactive: -1.3
4,GGCUCAUCUCCUAUGACCUTT against Lipe,inactive: -0.483
5,CCAAACGAGGACUAAAAAUTT against Xcl1,inactive: -0.488
6,GGUCAAAAGACAAUGUGGATT against Git2,inactive: -1.59
7,GGUCCAUACACCUGCUCUGTT against Opcml,inactive: 0.492
8,CCAUAACCGUGGAAAUUUUTT against Galnt3,inactive: 0.184
9,GCCCAUGUCCGUUACUAUATT against Trim2,inactive: -0.61
10,CGUGCACACUCAGAGAGUUTT against Wac,inactive: 1.24
11,GGAUGUGGAGUCACUGAUGTT against Ccdc91,inactive: -0.863
12,GCUAAAGCGGAAACCUAAGTT against Nelfa,inactive: 0.717
13,GCACUGACAAAUCAUGGUATT against 4833439L19Rik,inactive: -0.164
14,GGUAAUUUGUUUGUGGUGATT against Mtnr1b,inactive: -1.13
15,GGGUAGCUGGCGAAUCAAATT against Ptpro,inactive: -0.351
16,GCACUGCAUUUGAAUAGCATT against Lrfn5,inactive: -1.45
17,GGUUCAGCAAACCUACAAATT against Dpy19l1,inactive: 0.943
18,GGAGAUUCUGUGCUACUCCTT against Xrcc3,inactive: 0.457
19,GGGUCCUACAAAAAAAAAATT against Miip,inactive: 0.88
20,CGCUAAUCUUCGAAAACCUTT against Abcc12,inactive: -0.998
21,GCCCUUUGAGACAUUGGAATT against Ciz1,inactive: 0.311
22,GGAGCAAAAGGGUCAGAGGTT against Socs3,inactive: 1.16
23,GCCUUCAUAGUUGGAAACCTT against Olfr172,inactive: 0.279
24,CCUUUUAGGGAAAUUUGCATT against Mcm9,inactive: 0.651
25,GCCUAAUGAUUGCAUCCUATT against Gm11437,inactive: 1.05
26,GGAAGUUUAUGAUGAUGUCTT against Prpf40b,inactive: -0.145
27,GGACCUCAACAUCCAGAGATT against Sema6b,inactive: -0.217

row,Sequence,z-score
1,GGCUUAUUGGCUUGACCAATT against Exoc3l2,inactive: 0.428
2,GCUGGAUGCCGUAUCUAAGTT against Caprin1,inactive: 0.54
3,GGGAAUGAAGAACUUCCUCTT against Gapvd1,inactive: 0.508
4,GGCAUCUUGACCUUGAAGUTT against Actbl2,inactive: 1.3
5,GGAUAACUAGCAUUUCCCATT against Ninj2,inactive: -1.18
6,GACGAUUCUCUGUUGGUGUTT against Hcrt,inactive: 0.577
7,CGACAAUCGACAAUCGUGCTT against Acta1,inactive: -0.817
8,GGUCGAUGGUGCUCUGAAGTT against Spry3,inactive: 0.0297
9,CCAACGACUAAGAGAAGAGTT against Tdrp,inactive: 0.466
10,GAUACUUGGCUCCUAGAAGTT against Olfr803,inactive: -1.22
11,GGCUGCUACUGACAGAUUATT against Fgd6,inactive: 0.162
12,GGCCCUCAAACAGUGCAAATT against Chchd10,active: 2.09
13,GCUCUUCUGUCCAAAGAUGTT against Pim3,inactive: -0.235
14,GCUACAUCACAUGCAGUUCTT against Brinp2,inactive: -1.1
15,GCCAGAAUCAGAUCUCUCGTT against Amigo1,inactive: 1.49
16,CCUACUACUUCGUUAUCCGTT against Chrna2,inactive: 0.447
17,GGAGAAAUUCAAAGAGAGUTT against Gas2,inactive: 0.487
18,GCCUUUGUACAAUGACUAUTT against Prpf38a,inactive: -0.127
19,CCAGCUCAUUCAAGAGCAATT against Tmc6,inactive: -0.163
20,GGCAAAAACUACGUGCACCTT against Mapk7,inactive: 0.985
21,CGGUGAUCAAUCAUUGUAATT against Tas2r113,active: -2.16
22,GGCACAAACAUGUGUUCUATT against Vmn1r56,inactive: 0.584
23,GAAAAGUGCACCAUCAGCCTT against Ly6g5b,active: -2.27
24,GAUGCUCUCUGCUCUGAGATT against C030016D13Rik,inactive: -0.0555
25,GGAUGCCUGAGUGCUACAUTT against Lsm4,inactive: -0.837
26,CGACCACAGAUAUAAAUUUTT against Tbx5,inactive: -0.344

# Part of the list above, bar-delimited:
row | Sequence | z-score
2 | GCUGGAUGCCGUAUCUAAGTT against Caprin1 | inactive: 0.54
3 | GGGAAUGAAGAACUUCCUCTT against Gapvd1 | inactive: 0.508
4 | GGCAUCUUGACCUUGAAGUTT against Actbl2 | inactive: 1.3
5 | GGAUAACUAGCAUUUCCCATT against Ninj2 | inactive: -1.18
6 | GACGAUUCUCUGUUGGUGUTT against Hcrt | inactive: 0.577
7 | CGACAAUCGACAAUCGUGCTT against Acta1 | inactive: -0.817
8 | GGUCGAUGGUGCUCUGAAGTT against Spry3 | inactive: 0.0297
9 | CCAACGACUAAGAGAAGAGTT against Tdrp | inactive: 0.466
10 | GAUACUUGGCUCCUAGAAGTT against Olfr803 | inactive: -1.22
11 | GGCUGCUACUGACAGAUUATT against Fgd6 | inactive: 0.162
12 | GGCCCUCAAACAGUGCAAATT against Chchd10 | active: 2.09
13 | GCUCUUCUGUCCAAAGAUGTT against Pim3 | inactive: -0.235
14 | GCUACAUCACAUGCAGUUCTT against Brinp2 | inactive: -1.1
15 | GCCAGAAUCAGAUCUCUCGTT against Amigo1 | inactive: 1.49
16 | CCUACUACUUCGUUAUCCGTT against Chrna2 | inactive: 0.447
